{
  "source": "paper PMC9845910",
  "binders": {"B1": {"name": "Sey1-flag (protein, UniProt Q9UTE0 1-762)", "chain": "MSTASNRVSTQIVDEHKQFNNELPKFMQSVGLLDAGFNYHVVAVLGSQSTGKSTLLNNLFGTSFSVMDASKRQQTTKGIWLSKANNSPILVMDVEGTDGRERGEDQDFERKSALFSISTSEVIIVNMWENQVGLYQGSNMALLKTVLEVNLQLFHNKKERCLLQFVIRDFLGNTSMENLADTIMTDLNNIWASLSKPEGFENSVINDFFDVGFTGLPHKILCSDAFSEAVDSLRERFVDNNNSDYIFNVSYHKKIPADGFSLYTREIWDTIENNKDLDLPTQQQLLAQYRCDEIITEVMEPFSTACTILQKEFLPGNLCKDLPTKLLNMFETVIEAYDRQASRYNVHIYQKKKQELIASVDSHLYVFFQAQLNALHKELIKSFFDASNEFPSDTPFKESSSIKINELVNKMREEGESLSLPHVHWDVDPFILKLSEELTQNSETLCKEKLKEKLEELFTGFEFEVSEAVEVAFQKLSHNVWDTLLNEFLAAQNTTIEKIKNIVPFYVDIDDTKTTEEYIINFKKNSWLFFRKKIDSEMSEVLLQQRLRVYFEELFRYDSDGMPKLWKKSGTIDRDYRESLTKTLDLINVLASIKVSDGNYPDLNVDIKTLEPEYTSPASFFTILNRRRVSDISVNFKRSADLIFMDCKRSVINTTTRIPPYFWVLLIVLGWNEFMAILRNPFVFMILMFGGTVVYGLYISGLIWPAKMVLERATNNLVDLATDRFSNTYQEQVQQRAMQRTEKSGSPVASADDAEAEKTALS"}},
  "target": "T1, GFP-Tht1 (twin horsetails protein 1, meiotic nuclear fusion protein) (S. pombe) (UniProt Q09684)",
  "T1 sequence (chain, S-palmitoylated at cysteine 65 and 78 (MALDI MS/MS of the pulled-down protein))": "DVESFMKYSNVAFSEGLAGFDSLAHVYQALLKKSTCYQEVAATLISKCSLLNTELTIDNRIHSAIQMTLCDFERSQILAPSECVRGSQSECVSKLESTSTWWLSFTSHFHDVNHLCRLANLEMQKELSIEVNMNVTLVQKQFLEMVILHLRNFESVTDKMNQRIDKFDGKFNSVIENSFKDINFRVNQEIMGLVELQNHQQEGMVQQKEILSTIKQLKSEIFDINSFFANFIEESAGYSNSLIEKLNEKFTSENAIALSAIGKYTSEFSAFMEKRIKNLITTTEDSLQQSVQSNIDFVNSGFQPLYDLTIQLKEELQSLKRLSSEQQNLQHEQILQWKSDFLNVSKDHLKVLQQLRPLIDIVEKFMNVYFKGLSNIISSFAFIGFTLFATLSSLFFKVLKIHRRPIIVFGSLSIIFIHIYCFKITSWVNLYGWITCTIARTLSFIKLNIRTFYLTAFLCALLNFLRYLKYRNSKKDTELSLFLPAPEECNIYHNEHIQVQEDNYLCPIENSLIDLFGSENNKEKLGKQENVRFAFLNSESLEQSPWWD",
  "experiment": "co-IP; extracts of Sey1-flag strains expressing GFP-Tht1 or GFP; GFP-Trap agarose beads; NP-40 lysis buffer (1% NP-40, 150 mM NaCl, 2 mM EDTA); blots with anti-GFP and anti-flag",
  "note": "No constants are given. Whether binding was seen depends on the method and setting. In cells and extracts the contact can be indirect. Some binding calls cover weakened binding; strength is not graded here. Where a sequence is shown, tags or fusion partners need not be part of it.",
  "data": [
    {"binder": "B1", "values": [
      {"measurement": "binding", "result": "binds"}
    ]}
  ]
}
